Reference: article PMC9987799
No constants are given. Whether binding was seen depends on the method and setting. Where a sequence is shown, tags or fusion partners need not be part of it.

Amino acid sequences for entries named in this document (tags omitted). Residues count along the entry.
UniProt P26196, residues 289-483: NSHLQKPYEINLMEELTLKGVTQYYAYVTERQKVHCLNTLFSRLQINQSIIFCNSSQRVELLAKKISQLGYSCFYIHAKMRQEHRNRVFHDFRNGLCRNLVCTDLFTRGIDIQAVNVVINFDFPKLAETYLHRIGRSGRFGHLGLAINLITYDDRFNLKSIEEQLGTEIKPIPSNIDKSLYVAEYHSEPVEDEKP

Target: T1, GFP-PATL1(398–770) (UniProt Q86TB9)
T1 sequence: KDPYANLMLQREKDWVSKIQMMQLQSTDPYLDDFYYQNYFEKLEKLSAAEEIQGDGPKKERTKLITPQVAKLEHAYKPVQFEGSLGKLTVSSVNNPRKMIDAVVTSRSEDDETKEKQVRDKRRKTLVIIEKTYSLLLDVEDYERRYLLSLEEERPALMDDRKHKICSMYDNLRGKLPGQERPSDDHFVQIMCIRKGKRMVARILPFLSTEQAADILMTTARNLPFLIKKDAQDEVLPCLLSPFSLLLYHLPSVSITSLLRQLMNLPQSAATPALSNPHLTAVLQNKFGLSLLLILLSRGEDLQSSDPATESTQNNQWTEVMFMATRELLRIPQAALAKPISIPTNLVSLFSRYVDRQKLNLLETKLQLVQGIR
Experiment: two-hybrid; fluorescence-based mammalian two-hybrid with three plasmids (NLS-EDC4, a GFP-PATL1 construct, mCh-NLS-DDX6(289–483)) in HEp-2 cells, treated with leptomycin B for two hours

mCh-NLS-DDX6(289–483) (from UniProt P26196 289-483) (domain or fragment)
binding: no binding
